Assay results from PMC11067147.
Results are given in words; binding and its absence hold for the method and conditions named. Binding seen in cells or lysates may run through a third protein. Some entries that bind do so weakly or less than the wild type.

Protein sequences, listed by entry. Tags and fused reporters are not part of them.
UniProt Q7Z406: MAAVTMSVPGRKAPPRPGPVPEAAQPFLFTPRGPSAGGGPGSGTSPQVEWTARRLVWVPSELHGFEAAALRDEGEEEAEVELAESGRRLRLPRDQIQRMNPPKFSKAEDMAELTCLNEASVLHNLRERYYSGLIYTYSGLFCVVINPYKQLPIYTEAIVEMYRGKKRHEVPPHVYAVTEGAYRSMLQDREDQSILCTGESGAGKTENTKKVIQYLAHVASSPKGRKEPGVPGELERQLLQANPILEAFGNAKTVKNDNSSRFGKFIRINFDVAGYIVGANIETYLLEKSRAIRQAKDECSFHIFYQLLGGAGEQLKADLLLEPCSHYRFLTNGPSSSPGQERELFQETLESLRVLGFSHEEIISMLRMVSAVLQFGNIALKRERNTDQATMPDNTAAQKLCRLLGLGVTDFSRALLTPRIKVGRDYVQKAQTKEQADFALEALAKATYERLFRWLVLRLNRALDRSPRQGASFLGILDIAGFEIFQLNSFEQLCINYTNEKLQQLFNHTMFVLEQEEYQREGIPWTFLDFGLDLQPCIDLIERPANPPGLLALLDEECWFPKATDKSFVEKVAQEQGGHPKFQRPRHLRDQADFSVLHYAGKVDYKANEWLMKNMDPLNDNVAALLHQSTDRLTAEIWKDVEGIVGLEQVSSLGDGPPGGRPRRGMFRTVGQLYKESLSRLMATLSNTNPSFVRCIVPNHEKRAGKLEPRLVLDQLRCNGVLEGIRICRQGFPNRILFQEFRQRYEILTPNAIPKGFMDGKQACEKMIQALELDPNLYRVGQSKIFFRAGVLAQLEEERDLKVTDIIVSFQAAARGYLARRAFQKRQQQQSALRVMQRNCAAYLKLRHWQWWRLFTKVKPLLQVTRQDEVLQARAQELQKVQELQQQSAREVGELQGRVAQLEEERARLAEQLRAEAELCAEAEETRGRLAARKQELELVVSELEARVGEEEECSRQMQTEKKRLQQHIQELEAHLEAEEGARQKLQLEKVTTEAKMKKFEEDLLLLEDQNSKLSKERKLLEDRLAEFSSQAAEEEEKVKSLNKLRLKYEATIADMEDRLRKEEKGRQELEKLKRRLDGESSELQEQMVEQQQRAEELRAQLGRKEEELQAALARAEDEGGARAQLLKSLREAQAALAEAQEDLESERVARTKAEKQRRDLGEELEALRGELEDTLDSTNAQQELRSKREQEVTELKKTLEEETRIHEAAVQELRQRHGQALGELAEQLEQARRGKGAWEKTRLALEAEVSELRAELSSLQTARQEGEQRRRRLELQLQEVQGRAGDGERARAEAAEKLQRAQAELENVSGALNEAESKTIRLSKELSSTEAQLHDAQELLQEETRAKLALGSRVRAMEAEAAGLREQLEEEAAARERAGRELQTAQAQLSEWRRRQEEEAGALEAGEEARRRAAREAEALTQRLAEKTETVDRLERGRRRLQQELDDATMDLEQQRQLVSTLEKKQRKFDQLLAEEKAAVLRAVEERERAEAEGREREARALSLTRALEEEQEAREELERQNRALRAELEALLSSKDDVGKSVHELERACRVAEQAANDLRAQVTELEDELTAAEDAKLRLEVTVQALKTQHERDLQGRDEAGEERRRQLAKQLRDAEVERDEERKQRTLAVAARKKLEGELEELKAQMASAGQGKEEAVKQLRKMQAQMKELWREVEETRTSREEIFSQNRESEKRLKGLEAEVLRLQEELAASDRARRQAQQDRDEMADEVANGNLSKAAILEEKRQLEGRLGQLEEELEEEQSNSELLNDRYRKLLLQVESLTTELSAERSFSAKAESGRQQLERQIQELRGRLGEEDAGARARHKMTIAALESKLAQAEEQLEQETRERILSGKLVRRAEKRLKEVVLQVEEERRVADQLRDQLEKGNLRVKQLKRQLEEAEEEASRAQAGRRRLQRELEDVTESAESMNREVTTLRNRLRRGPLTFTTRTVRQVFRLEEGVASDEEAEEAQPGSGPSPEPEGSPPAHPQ
UniProt P35579: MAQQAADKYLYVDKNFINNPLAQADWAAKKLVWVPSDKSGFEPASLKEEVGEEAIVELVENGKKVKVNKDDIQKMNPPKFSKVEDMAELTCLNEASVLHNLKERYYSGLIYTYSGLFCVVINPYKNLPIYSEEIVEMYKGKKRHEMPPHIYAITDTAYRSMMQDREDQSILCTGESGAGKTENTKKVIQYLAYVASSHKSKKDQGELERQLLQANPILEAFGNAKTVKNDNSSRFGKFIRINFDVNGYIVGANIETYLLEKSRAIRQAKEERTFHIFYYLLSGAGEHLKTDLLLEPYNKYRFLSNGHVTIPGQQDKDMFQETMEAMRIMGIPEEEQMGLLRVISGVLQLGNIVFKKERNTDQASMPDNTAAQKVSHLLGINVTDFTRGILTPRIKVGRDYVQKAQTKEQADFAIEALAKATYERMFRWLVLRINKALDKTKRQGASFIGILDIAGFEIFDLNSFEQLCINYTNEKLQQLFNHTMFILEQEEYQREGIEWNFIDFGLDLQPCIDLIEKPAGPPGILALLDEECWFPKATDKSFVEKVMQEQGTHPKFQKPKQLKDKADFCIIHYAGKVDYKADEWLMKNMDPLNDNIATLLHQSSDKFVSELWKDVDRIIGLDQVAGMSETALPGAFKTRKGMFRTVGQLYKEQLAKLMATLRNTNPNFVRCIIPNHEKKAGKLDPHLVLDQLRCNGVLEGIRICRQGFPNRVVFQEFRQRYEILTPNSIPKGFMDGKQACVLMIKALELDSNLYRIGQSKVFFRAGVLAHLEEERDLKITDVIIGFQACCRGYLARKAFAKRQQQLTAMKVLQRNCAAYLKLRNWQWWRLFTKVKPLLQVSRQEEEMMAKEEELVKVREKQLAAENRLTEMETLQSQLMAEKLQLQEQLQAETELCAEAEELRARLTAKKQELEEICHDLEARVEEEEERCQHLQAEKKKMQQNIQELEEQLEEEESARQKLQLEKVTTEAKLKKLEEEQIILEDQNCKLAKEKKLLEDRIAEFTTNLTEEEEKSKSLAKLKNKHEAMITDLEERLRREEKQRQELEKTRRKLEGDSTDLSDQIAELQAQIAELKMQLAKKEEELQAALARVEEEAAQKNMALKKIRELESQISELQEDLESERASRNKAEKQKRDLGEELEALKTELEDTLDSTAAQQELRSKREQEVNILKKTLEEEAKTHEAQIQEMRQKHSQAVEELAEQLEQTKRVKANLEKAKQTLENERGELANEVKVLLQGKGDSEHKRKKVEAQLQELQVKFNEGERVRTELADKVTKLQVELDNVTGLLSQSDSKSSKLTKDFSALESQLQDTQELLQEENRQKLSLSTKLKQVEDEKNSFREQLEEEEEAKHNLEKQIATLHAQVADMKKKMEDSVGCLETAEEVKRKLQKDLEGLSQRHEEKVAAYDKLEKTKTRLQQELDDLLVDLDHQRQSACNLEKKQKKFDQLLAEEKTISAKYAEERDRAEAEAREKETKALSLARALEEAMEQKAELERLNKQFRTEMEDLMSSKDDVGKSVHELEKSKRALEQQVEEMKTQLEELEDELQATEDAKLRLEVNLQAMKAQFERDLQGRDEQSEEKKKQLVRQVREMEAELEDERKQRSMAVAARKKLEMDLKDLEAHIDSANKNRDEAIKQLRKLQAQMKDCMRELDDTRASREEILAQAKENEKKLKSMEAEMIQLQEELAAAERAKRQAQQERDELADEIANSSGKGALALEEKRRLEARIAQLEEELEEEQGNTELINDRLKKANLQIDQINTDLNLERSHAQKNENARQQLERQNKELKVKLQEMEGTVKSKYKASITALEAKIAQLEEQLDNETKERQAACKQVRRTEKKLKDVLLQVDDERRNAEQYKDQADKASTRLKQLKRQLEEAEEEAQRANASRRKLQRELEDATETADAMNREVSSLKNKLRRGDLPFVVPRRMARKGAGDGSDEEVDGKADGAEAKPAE

Biological target: MYH14 (human (endogenous in Ishikawa and KLE)) (UniProt Q7Z406)
Test: co-IP; Pierce Co-IP kit, antibody covalently coupled to amine-reactive resin; lysates of Ishikawa and KLE cells, overnight at 4 °C; western blot; also cells treated with sesamolin for 48 h

binding: binds
Substance: MYH9 (from UniProt P35579 1-1960)
